In PubChem BioAssay AID1487 (National Center for Advancing Translational Sciences (NCATS), 2009):
Some of the results follow. These are further read-outs of the screen, such as a control signal, another cell line or another target. No call is given for them. Most of these compounds were active or inconclusive in the main read-out, so they are no random draw. The note in brackets gives the kind of curve behind each potency; many fits are weak.

Assay: qHTS Assay for Modulators of Lamin A Splicing
Conditions: HeLa LMNA splicing GFP/RFP minigene ratio, 48 h
Method in brief: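 S3 HeLa stable clones carrying a lamin A-EGFP splicing minigene plus DsRed2 were seeded at 600 cells/well in Opti-MEM with 2% FBS, pin-dosed and incubated 48 h at 37°C. Acumen cytometry (488 nm) gave the GFP/RFP total-intensity ratio.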

[1] = measured here: RFP viability control channel
[2] = measured here: GFP splicing reporter channel

| SMILES | AC50 [1] | AC50 [2] |
| --- | --- | --- |
| CCOc1ccc(NC(=O)c2sc3nc4n(c(=O)c3c2C)CCC4)cc1 | 7.08 µM [rising, partial curve] |  |
| O=C(Nc1ccccc1F)C1CCCN(S(=O)(=O)c2ccccc2)C1 (centres undefined) | 0.0158 µM [rising, full curve, poor fit] |  |
| COc1ccc(CN2CCC(C(=O)N3CCCC(C)C3)CC2)cc1OC (centres undefined) | 0.0282 µM [rising, full curve, poor fit] |  |
| CC(C1CC1)N(Cc1ccccc1)C(=S)Nc1cccc(C(F)(F)F)c1 (centres undefined) | 31.6 µM [rising, single point] | 35.5 µM [rising, single point] |
| O=S(=O)(Nc1ccc2cn[nH]c2c1)c1ccc(Cl)s1 |  | 1.41 µM [falling, full curve, poor fit] |
| Cc1cc(=O)[nH]c(SCC(=O)NC(C)C2CC3CCC2C3)c1C#N (centres undefined) |  | 14.1 µM [falling, single point] |
| COc1ccc(CCn2c(C)cc3c(c2=O)C(c2ccc4c(c2)OCO4)C(C#N)=C(N)O3)cc1OC (centres undefined) | 12.6 µM [rising, single point] |  |
| COc1ccccc1CNC(=O)C(=O)NCC(c1cccs1)S(=O)(=O)c1ccccc1 (centres undefined) |  | 3.55 µM [rising, partial curve, poor fit] |
| COC(=O)C1=C(C(=O)OC)[C@@H]2N(C)c3ccc(OC)cc3[C@@]23C[C@@H](C(=O)OC)N(C(=O)COCc2ccccc2)C3=N1 | 0.001 µM [falling, full curve, poor fit] |  |
| COc1ccc(NS(=O)(=O)c2ccc(Cl)c(N)c2)cc1Br | 10 µM [rising, partial curve, poor fit] |  |
| CCCSc1nsc(N)n1 | 5.62 µM [falling, single point] | 2.82 µM [falling, single point] |
| O=[N+]([O-])c1ccc(COc2cccc(CNc3ccc(F)cc3)c2)cc1 | 35.5 µM [rising, single point] |  |
| O=C(Cc1ccc(-n2cccc2)cc1)NCc1ccccc1Cl | 35.5 µM [rising, single point] |  |
| Cc1cccc(C(=O)Nc2nnc(S(=O)(=O)N(C)Cc3ccccc3)s2)c1 |  | 12.6 µM [falling, partial curve] |
| COc1ccc(CCNC(=O)CN(c2cc([N+](=O)[O-])ccc2OC)S(C)(=O)=O)cc1 |  | 0.00316 µM [falling, full curve, poor fit] |
| CCOc1ccc(CNC(=O)c2ccc(Sc3ccc(C)cc3)c(NC(C)=O)c2)cc1 | 20 µM [rising, single point] | 14.1 µM [rising, partial curve] |
| COc1cc(C(NC(C)=O)NC(C)=O)ccc1OCc1ccccc1 |  | 0.355 µM [falling, full curve, poor fit] |
| COc1ccc(-n2cnc3cc(NCc4cccs4)ccc32)cc1 | 22.4 µM [rising, single point] |  |
| CCOc1ccc(OCC)c(NC(=O)c2cc(S(=O)(=O)N3CCc4ccccc43)cn2C)c1 | 3.55 µM [rising, partial curve] |  |

| SMILES | AC50 [1] | AC50 [2] |
| --- | --- | --- |
| C=CCOc1c(Br)cc(/C=N/n2c(CC)n[nH]c2=S)cc1Br | 0.0141 µM [rising, full curve, poor fit] | 35.5 µM [rising, single point] |
| C1CCc2nnnn2CC1 |  | 0.501 µM [rising, full curve, poor fit] |
| CCN(CC)S(=O)(=O)c1cc([N+](=O)[O-])ccc1NNC(=O)Nc1ccc(F)cc1 | 11.2 µM [rising, single point] |  |
| Cc1cc(C)cc(OCC(=O)NNC(=O)C2CCCO2)c1 (centres undefined) | 3.98 µM [falling, partial curve] |  |
| COc1ccccc1/C=C/C(=O)c1c2c(c(C)[nH]c1=O)CCCC2 | 22.4 µM [falling, partial curve] | 4.47 µM [falling, partial curve] |
| CN(C)c1ncnc2c1ncn2C1OC(CO)C(O)C1O (centres undefined) | 10 µM [falling, partial curve] | 1.78 µM [falling, partial curve] |
| NS(=O)(=O)c1ccc(NC(=O)C2(c3ccccc3)CCCC2)cc1 |  | 0.0251 µM [falling, full curve] |
| O=C(c1ccc(Cn2cc(Cl)cn2)o1)N1CCN(Cc2ccc3c(c2)OCO3)CC1 | 17.8 µM [rising, partial curve, poor fit] | 15.8 µM [rising, partial curve] |
| COC(=O)c1c(NC(=O)COC(=O)c2ccc(C)s2)sc2c1CCCCC2 |  | 6.31 µM [falling, partial curve, poor fit] |
| CCN1C(=O)C(CC(=O)Nc2ccc(F)cc2)N(Cc2ccc3c(c2)OCO3)C1=S (centres undefined) | 14.1 µM [rising, partial curve] | 1 µM [rising, full curve, poor fit] |
| Cc1nn(C)cc1CNC(=O)COc1ccc(Cl)cc1Cl | 15.8 µM [rising, partial curve] |  |
| COc1cc(C(=O)O)nc(OC)n1 | 3.98 µM [falling, single point] |  |
| Cc1ccc(-n2c(SCc3ccccc3F)nc3[nH]ncc3c2=O)cc1Cl | 0.0112 µM [rising, full curve, poor fit] |  |
| O=C1Nc2ccccc2Oc2cc([N+](=O)[O-])cc(Oc3ccccc3)c21 | 12.6 µM [rising, partial curve] | 6.31 µM [rising, full curve, poor fit] |
| Cc1ccc2nc(NC(=O)CSc3[nH]c(=O)ncc3C)sc2c1 |  | 15.8 µM [falling, partial curve, poor fit] |
| O=Nc1ccc2oc(=O)ccc2c1 | 22.4 µM [falling, partial curve] | 35.5 µM [falling, single point] |
| CCOC(=O)N1CCC(NC(=O)C2CCN(S(=O)(=O)c3c(C)noc3C)CC2)CC1 | 3.16 µM [falling, full curve] | 2.82 µM [falling, full curve, poor fit] |
| CCCCNC(=O)c1cccc(NC(=O)c2nsc3ccccc23)c1 |  | 0.0224 µM [rising, full curve, poor fit] |
| C/C(=N\NC(=O)c1cc(C)[nH]n1)C(C)(C)C | 11.2 µM [rising, partial curve, poor fit] | 14.1 µM [rising, partial curve, poor fit] |

3 structures already listed, ordered by number of heavy atoms, low to high:

| SMILES | AC50 [1] | AC50 [2] |
| --- | --- | --- |
| O=C(Cc1ccc(-n2cccc2)cc1)NCc1ccccc1Cl | 35.5 µM [rising, single point] |  |
| CCN(CC)S(=O)(=O)c1cc([N+](=O)[O-])ccc1NNC(=O)Nc1ccc(F)cc1 | 11.2 µM [rising, single point] |  |
| COc1ccc(CCn2c(C)cc3c(c2=O)C(c2ccc4c(c2)OCO4)C(C#N)=C(N)O3)cc1OC (centres undefined) | 12.6 µM [rising, single point] |  |

Remaining list, next part

| SMILES | AC50 [1] | AC50 [2] |
| --- | --- | --- |
| O=C(N/N=C/c1cn(-c2ccccc2)nc1-c1cc2ccccc2o1)c1cccnc1 | 0.282 µM [rising, full curve, poor fit] |  |
| CCOc1ccc(S(=O)(=O)Nc2ccccc2SC)cc1 | 22.4 µM [rising, single point] |  |
| O=C(CSc1nnc(-c2ccco2)o1)N1c2ccccc2CCc2ccccc21 | 12.6 µM [rising, partial curve] |  |
| Nc1nnnn1CC(=O)N/N=C/c1ccc(-c2cccc(Cl)c2)o1 | 0.0794 µM [rising, full curve, poor fit] | 0.158 µM [rising, full curve] |
| COc1cc(/C=N/NC(=O)c2cccnc2)ccc1OS(=O)(=O)c1ccc(C)cc1 | 10 µM [rising, partial curve, poor fit] |  |
| CC(=C(CCOP(=O)(O)O)SC(=O)c1ccccc1)N(C=O)Cc1cnc(C)nc1N | 12.6 µM [falling, single point] | 12.6 µM [falling, single point] |
| COc1ccc(N2CCN(S(=O)(=O)c3ccc(F)c(C(=O)Nc4ccccc4Cl)c3)CC2)cc1 | 35.5 µM [falling, partial curve, poor fit] | 11.2 µM [falling, partial curve] |
| Cc1cc(C(=O)CSc2nc3ccccc3o2)c(C)n1C1CC1 | 12.6 µM [rising, partial curve, poor fit] |  |
| CCOC(=O)c1sc(=S)n(-c2ccccc2Cl)c1SC | 22.4 µM [rising, single point] |  |
| CC(=O)N1CCN(C(=O)c2ccc(Oc3ccccc3)cc2)CC1 |  | 6.31 µM [rising, partial curve] |
| O=C(NCc1cccnc1)c1ccc(CS(=O)(=O)Cc2ccc(Cl)cc2)o1 | 35.5 µM [rising, single point] |  |
| CC(C)COc1cccc(C(=O)Nc2ccc(S(=O)(=O)N3CCOCC3)cc2)c1 | 14.1 µM [rising, single point] |  |
| CCCOc1ccc2nc(NC(=O)OC)sc2c1 | 2.51 µM [rising, full curve] |  |
| COc1cccc(Nc2ncc3ncc(=O)n(Cc4ccc(F)cc4)c3n2)c1 | 22.4 µM [falling, partial curve, poor fit] |  |
| CCOc1ccc(C(=O)C2CCN(CC(=O)Nc3ccccc3N3CCOCC3)CC2)cc1 | 12.6 µM [rising, partial curve] | 10 µM [rising, partial curve] |
| O=C(Nc1nc(-c2ccccn2)cs1)c1ccco1 | 28.2 µM [falling, single point] |  |
| CC(C)(C)c1ccc(S(=O)(=O)/C=C/C#N)cc1 | 3.16 µM [falling, full curve] | 3.55 µM [falling, full curve] |
| CC(C)CC(COCc1ccc(F)cc1)N1CCN(C(=O)c2cccc(C(F)(F)F)c2)CCC1=O (centres undefined) | 31.6 µM [rising, single point] | 17.8 µM [rising, single point] |
